Measured values reported in PubChem BioAssay AID743238 (Broad Institute, 2013).
Where “and” joins values, the source holds several entries; their conditions need not be identical. Equal values may be shown once. The campaign covered roughly 360,000 compounds. About 200 (0.056%) were called active. Inconclusive means that the source gave no clear call. Such entries were picked first, then a sample of the others.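 Rule for the calls: active = mean normalized replicate activation at least 10% and every replicate at or above 10%; inconclusive = only one of the two criteria met; inactive = mean below 10% and not all replicates reach 10%.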

Test: activators of inactive X chromosome reactivation, primary screen, imaging, XiGFP fibroblasts, GFP high-content imaging, set 2 (AID 743238);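 note: 0% = median of on-plate neutral control wells and 100% = ellipticine 6 µM median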
Settings: XiGFP mouse fibroblasts, % GFP-positive cells imaging, 3 d; at 7.58 µM; hits give high values; cells co-treated with 5-aza-dC sensitizer; scaled so ellipticine positive control = 100%
In short: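 System: 68-5-11 XiGFP fibroblast line; Timing: 3 days compound exposure; Compound dosing: one concentration, pinned; Benchmarks: positive control ellipticine, 6 µM final; Buffer or medium: DMEM containing 5-aza-dC.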

Structure (SMILES)	activation
COc1ccc(CCn2c(C)cc(C(=O)CN3C(=O)C(=O)N(Cc4ccco4)C3=O)c2C)cc1	active: 34.3%
Cc1ccnc(NS(=O)(=O)c2ccc3c(c2)CCO3)c1	inconclusive: 16.2%
COc1ccc(COc2ccccc2C(=O)NCc2ccccc2)cc1F	active: 23.3%
CC(C)c1cc(C(=O)N/N=C/c2cccnc2)cs1	inconclusive: 33.4%
CC(=O)Nc1ccc(NS(=O)(=O)c2ccc3c(c2)oc(=O)n3C)cc1	inconclusive: 21.1%
CCOC(=O)c1ccc(NC(=O)C2CCC(CNc3c(N4CCOCC4)c(=O)c3=O)CC2)cc1 (stereo unspecified)	inconclusive: 12.9%
F[B-](F)(F)c1cnc2ccccc2c1	inconclusive: 42.1%
O=C(N/N=C\c1c(O)ccc2ccccc12)c1ccc(S(=O)(=O)N2CCCCC2)cc1	active: 48.2%
COc1cc(CNc2nc3ccccc3n2C)cc(OC)c1OC	inconclusive: 15.4%
CC(=O)Nc1cc2c3c(cccc3c1)-c1ccccc1-2	active: 99.5%
Cc1ccc(S(=O)(=O)Nc2cccc3c2O[C@H](CN(C)C(=O)Nc2cccc4ccccc24)[C@H](C)CN([C@H](C)CO)C3=O)cc1	inconclusive: 32.7%
COc1ccc(-n2c(=O)n(Cc3ccccc3)c(=O)c3[nH]cnc32)cc1	inconclusive: 30.6%
COC(=O)c1sc(-c2ccc(C(C)(C)C)cc2)cc1NC(=O)c1ccccc1C(=O)O	inconclusive: 12.2%
CCN1C(=O)[C@@H]2Cc3c([nH]c4ccccc34)C(c3cc(OC)c(OC)c(OC)c3)N2C1=S (stereo partly specified)	active: 26.5%
Clc1ccc(-c2nc(-c3ccncc3)no2)c(Cl)c1	inconclusive: 16.4%
CCOC(=O)CCNC(=O)N1CCC(CCC(=O)NCc2ccc(F)cc2)CC1	inactive: 0.497%
O=C(CSc1nc(-c2ccco2)cc(C(F)(F)F)n1)NN1CCOCC1	inconclusive: 15.1%
O=C(Nc1ccc2c(c1)OCO2)c1ccc(CO)cc1	inactive: -0.065%
CC(=O)Oc1ccc2c(=O)c(-c3ccccc3)coc2c1	inconclusive: 21.9%
CCCCC[C@H]1CN(CCc2ccccc2)C(=O)[C@@H]1CC(=O)NCc1ccc(OC)cc1	inactive: 0%
CC(OCCN(C)C)C(=O)C12CC3CC(CC(C3)C1)C2 (stereo unspecified)	inconclusive: 12.1%

Structure (SMILES)	activation
Cc1ccc2[nH]c(C(=O)O)c(NC(=O)[C@@H]3C[C@@H]3c3ccccc3)c2c1	inconclusive: 11%
O=C(O)c1cccnc1C(=O)N1CCc2c([nH]c3ccccc23)C1C(F)(F)F (stereo unspecified)	inconclusive: 17.4%
CCOCCCNC(=O)/C(C#N)=C/c1ccc([N+](=O)[O-])o1	inconclusive: 12%
C[C@@H]1CN([C@H](C)CO)S(=O)(=O)c2ccc(C#Cc3ccccc3F)cc2O[C@H]1CN(C)C(=O)c1ccc2c(c1)OCO2	inactive: -0.139% and inactive: -0.025%
COC1=CC(=O)c2c(ccc3ncnc(N)c23)C1=O	active: 18.9%
CC(=O)Nc1sc(C)c(C)c1C(=O)OCC(=O)Nc1cc(S(C)(=O)=O)ccc1Cl	inconclusive: 20.8%
CCCOc1ccc(C(=O)Nc2ccc(CN3CCOCC3)cc2)cc1	inconclusive: 30.4%
CCOC(=O)c1c(C)[nH]c(N=Nc2ccc(OC)cc2)c1C	inconclusive: 26.1%
O=C(CCc1ccccc1)Nc1ccccc1C(F)(F)F	inactive: 0%
CCCn1c(=N)n(CC(=O)c2ccc([N+](=O)[O-])cc2)c2ccccc21	inactive: 0.3%
Cc1cccc(NC(=O)/C=C/c2ccc([N+](=O)[O-])s2)c1	active: 80.9%
CCOC(=O)c1ccc(NC(=O)c2ccnn2C)cc1	inconclusive: 10.6%
Cc1ccc(-c2ccc3c(c2)O[C@@H](CN(C)Cc2ccncc2)[C@@H](C)CN([C@@H](C)CO)S3(=O)=O)cc1	inconclusive: 15.3%
COc1ccccc1-c1ccc([C@H]2[C@@H](C#N)N(C(=O)C3CCOCC3)[C@H]2CO)cc1	inactive: 0.202%
Cc1ccccc1C(=O)Nc1nnc(S(=O)(=O)N2CCCCCC2)s1	inactive: 0.0825%
CCC(=C/c1sc2ccc3ccccc3c2[n+]1C)/C=C1\Sc2ccc3ccccc3c2N1C	active: 68%
COc1ccc(CCNC(=O)c2ccc([N+](=O)[O-])cc2)cc1	inconclusive: 19.8%
NC(=NC(=O)c1cccc(C(F)(F)F)c1)c1ccc(C(F)(F)F)cn1	active: 21.8%
CCCN1C[C@@H](C)[C@H](OC)CN(C)C(=O)c2cc(NC(=O)Nc3cccc(F)c3)ccc2OC[C@@H]1C	inactive: 0.38%
CC(=O)Nc1ccc(N2Cc3ccccc3C2)cc1	inconclusive: 19.9%
O=[N+]([O-])c1ccc(Sc2cccc[n+]2[O-])c2nonc12	active: 58.7%

Part of the list above, as a markdown table.

| Structure (SMILES) | activation |
| --- | --- |
| CCCN1C[C@@H](C)[C@H](OC)CN(C)C(=O)c2cc(NC(=O)Nc3cccc(F)c3)ccc2OC[C@@H]1C | inactive: 0.38% |
| CC(=O)Nc1ccc(N2Cc3ccccc3C2)cc1 | inconclusive: 19.9% |

Later entries

Structure (SMILES)	activation
O=C(Nc1ccc(Cl)cc1)N[C@@H]1CC[C@@H](CCNC(=O)c2ccccc2F)O[C@@H]1CO	inactive: -0.134%
CC1CN(C(=O)/C=C/c2ccc([N+](=O)[O-])s2)CC(C)O1 (stereo unspecified)	inconclusive: 10.2%
C[C@@H]1CN([C@H](C)CO)C(=O)c2cc(-c3cccc(F)c3)cnc2O[C@H]1CN(C)S(=O)(=O)c1cccc(F)c1	inactive: -0.132%
O=C(COC(=O)c1ccc(NS(=O)(=O)c2cccs2)cc1O)NC1CCCCC1	inconclusive: 13.2%
COc1ccc(C2=NOC3(CC(=O)N(c4ccc(F)cc4)C3=O)C2)cc1 (stereo unspecified)	inconclusive: 15.4%
O=[N+]([O-])c1ccc(-c2ccc(/C=N/Nc3nc(NCc4ccccc4)nc(N4CCOCC4)n3)o2)cc1	inconclusive: 21%
COc1cc(C=C2C(=O)c3ccccc3C2=O)cc(OC)c1	inconclusive: 13.4%
COc1ccc(-n2c(NNC(C)=O)nc3sc4c(c3c2=O)CCCC4)cc1	inactive: 0.127%
O=C(C[C@@H]1C[C@@H]2c3cc(NC(=O)Cc4ccncc4)ccc3O[C@@H]2[C@H](CO)O1)NCc1ccc2c(c1)OCO2	inactive: 0.0445%
COc1ccccc1C#Cc1ccc2c(c1)O[C@H](CN(C)Cc1cncnc1)[C@@H](C)CN([C@H](C)CO)S2(=O)=O	active: 25.6%
O=[N+]([O-])c1ccc(N2N=C(c3ccccc3)CC2c2ccccc2O)cc1 (stereo unspecified)	active: 32.3%
Oc1ccc(Cl)cc1C=Nc1ccc2c3c(cccc13)CC2	active: 30.4%
CCN(CC)S(=O)(=O)c1ccc(Cl)c(NC(=O)COC(=O)c2c(C)noc2C)c1	inconclusive: 12.6%
CCC(=O)N1[C@@H]2c3ccc(-c4cncnc4)c(=O)n3C[C@H]1[C@H](CO)[C@H]2C(=O)N1CCc2ccccc2C1	inactive: 0.275%
C#Cc1cc(N2CCN(C(=O)c3ccoc3)CC2)n2nc(-c3cccc(Cl)c3)cc2n1	active: 34%
CO[C@@H]1CN(C)C(=O)c2ccc(NC(=O)Nc3cccc(Cl)c3)cc2OC[C@H](C)N(C(=O)Nc2c(C)noc2C)C[C@H]1C	inconclusive: 16.5%
C[C@@H]1CN([C@@H](C)CO)C(=O)c2cc(-c3cccc(F)c3)cnc2O[C@H]1CN(C)C(=O)c1cnccn1	inactive: 0.362%
CN(Cc1nccn1C)C(=O)CC1C(=O)NCCN1CC(c1ccccc1)c1ccccc1 (stereo unspecified)	inconclusive: 43.3%
Cc1noc(C)c1NC(=O)N[C@H]1CC[C@H](CC(=O)N2CCN(C)CC2)O[C@H]1CO	inconclusive: 10.2%
CCc1cccc2cc3c(N)c(C(=O)Nc4ccc(S(=O)(=O)N5CCCC5)cc4)sc3nc12	active: 89.2%
Cc1cc2c(NC(=O)Nc3ccc(C(C)(C)C)cc3)cccc2nn1	inconclusive: 17.3%

Structure (SMILES)	activation
O=C1N[C@H](Cc2ccccc2)COCc2cn(nn2)CC[C@@H]1Cc1ccccc1	inconclusive: 19.5%
COCCNC(=S)Nc1ccc2nc(N3CCN(C)CC3)cc(C)c2c1	inactive: 0.18%
CNC[C@H]1Oc2ccc(NC(=O)C3CC3)cc2CC(=O)N([C@@H](C)CO)C[C@H]1C	inactive: 0.03%
COc1ccc([C@H]2CC(=O)C=C(c3ccc(Oc4ccccc4)cc3)C2)cc1OC	inactive: -0.0945%
COc1ccc(Cn2cc3c(-c4ccc(F)cc4)nnc-3c3cc(OC)c(OC)cc32)cc1	active: 80.5%
CCOC(=O)C1(NC(=O)C2(NC(=O)CN3C(=O)c4ccccc4C3=O)CCCC2)CCCC1	inactive: -0.0585%
O=S(=O)(NCc1cc(-c2ccccc2)no1)c1ccccc1	inactive: 0%
CCN1/C(=C\c2ccc3ccccc3[n+]2CC)Sc2cc(C)ccc21	active: 415%
O=C(C[C@H]1CC[C@H]2[C@@H](COC[C@H](O)CN2Cc2nccs2)O1)NCc1ccccc1F	inactive: -0.122%
CC(O)(c1ccccc1)c1nc(-c2ccncc2)cs1 (stereo unspecified)	inconclusive: 13.5%
COc1ccc(-c2noc(-c3cccs3)n2)cc1OC	inconclusive: 13.6%
N#Cc1c(NC(=O)c2ccc([N+](=O)[O-])o2)sc2c1CCC2	inactive: -0.0105%
O=C(N/N=C/c1ccccc1OCc1ccccc1)c1cccs1	inactive: -0.17%
N#C/C(=C\c1ccc([N+](=O)[O-])o1)c1nc2ccccc2[nH]1	active: 62.3%
C=Cc1cnc([N+](=O)[O-])n1C	active: 88.3%
Cc1ccc(NCc2nnc(SCC(=O)NNC(=O)Cc3ccccc3)n2C)cc1	active: 21.4%
COCC(=O)Nc1ccc2c(c1)OC[C@H](C)N(C(=O)c1cccnc1)C[C@@H](C)[C@@H](OC)CN(C)C2=O	inactive: 0.137%
COC(=O)c1c(NC(=O)c2ccccc2)sc2c1CC(C)(C)NC2(C)C	inconclusive: 17.3%

Filtered by structure, the entries above with fluorine (15)
Structure (SMILES)	activation
COc1ccc(COc2ccccc2C(=O)NCc2ccccc2)cc1F	active: 23.3%
F[B-](F)(F)c1cnc2ccccc2c1	inconclusive: 42.1%
CCOC(=O)CCNC(=O)N1CCC(CCC(=O)NCc2ccc(F)cc2)CC1	inactive: 0.497%
O=C(CSc1nc(-c2ccco2)cc(C(F)(F)F)n1)NN1CCOCC1	inconclusive: 15.1%
O=C(O)c1cccnc1C(=O)N1CCc2c([nH]c3ccccc23)C1C(F)(F)F (stereo unspecified)	inconclusive: 17.4%
C[C@@H]1CN([C@H](C)CO)S(=O)(=O)c2ccc(C#Cc3ccccc3F)cc2O[C@H]1CN(C)C(=O)c1ccc2c(c1)OCO2	inactive: -0.139% and inactive: -0.025%
O=C(CCc1ccccc1)Nc1ccccc1C(F)(F)F	inactive: 0%
NC(=NC(=O)c1cccc(C(F)(F)F)c1)c1ccc(C(F)(F)F)cn1	active: 21.8%
CCCN1C[C@@H](C)[C@H](OC)CN(C)C(=O)c2cc(NC(=O)Nc3cccc(F)c3)ccc2OC[C@@H]1C	inactive: 0.38%
O=C(Nc1ccc(Cl)cc1)N[C@@H]1CC[C@@H](CCNC(=O)c2ccccc2F)O[C@@H]1CO	inactive: -0.134%
C[C@@H]1CN([C@H](C)CO)C(=O)c2cc(-c3cccc(F)c3)cnc2O[C@H]1CN(C)S(=O)(=O)c1cccc(F)c1	inactive: -0.132%
COc1ccc(C2=NOC3(CC(=O)N(c4ccc(F)cc4)C3=O)C2)cc1 (stereo unspecified)	inconclusive: 15.4%
C[C@@H]1CN([C@@H](C)CO)C(=O)c2cc(-c3cccc(F)c3)cnc2O[C@H]1CN(C)C(=O)c1cnccn1	inactive: 0.362%
COc1ccc(Cn2cc3c(-c4ccc(F)cc4)nnc-3c3cc(OC)c(OC)cc32)cc1	active: 80.5%
O=C(C[C@H]1CC[C@H]2[C@@H](COC[C@H](O)CN2Cc2nccs2)O1)NCc1ccccc1F	inactive: -0.122%
